Results as given in US20240226083A9, “MEDICAMENT FOR TREATMENT AND/OR PROPHYLACTIC TREATMENT OF CANCERS” (Belina Pharma AB, priority 2019, published 2024).

System: patients with kidney cancer
Procedure: Both peri- and post-diagnostic antihistamine use was analyzed, using Cox regression models, as well as different subgroups of patients with regard to age, gender (as a proxy for sex) and tumor status.
Material and methods Linking the Cancer Registry with the Drug Prescription Registry and Cause of Death Registry the survival of over 500 000 cancer patients with cancer in the breast-, prostate, ventrikel, pancreas, kidney, colo-rectal, lung, uterus, ovary, brain, melanoma, lymph gland and bone marrow was studied between 2005-2014.
Use of the six major antihistamines was established using the Swedish Prescribed Drug Register, a record of all dispensed prescribed pharmaceuticals in Sweden since July 1st 2005. To be included in the registry at least 2 weeks of prescription is required. […] Causes of death were obtained from the Swedish Cause of Death Register, a database where all deaths have been recorded since 1952. […]
We analyzed both the peri- and cumulative post-diagnostic use of antihistamines among melanoma patients. […]
For the cumulative post-diagnostic antihistamine use analysis, mortality rates for antihistamine users were compared to those of non-users through a Cox regression model allowing for time varying covariates, and survival time was measured in years since diagnosis. […] The impact of the cumulative DDDs was assessed after log transformation of the DDDs plus one3. […]

## Clc1ccc2c(c1)CCc1cccnc1C2=C1CCNCC1 [desloratadine]
Kidney cancer, baseline 5 year survival about 75% 2016, FIG. 1
  5 year survival chance increased by (kidney cancer): 30%
Users vs non-users, in words
  effect of use on kidney cancer survival: consistently beneficial effect
